Measurements taken from PubChem BioAssay AID252 (DTP/NCI, 2004).
The list is a part of this screen's results and no random one: it is rich in T/C values a quarter to a half above the control, in often repeated tests (any T/C) and in doses without a T/C. Other doses and runs of a compound stand elsewhere. T/C gives the treated animals as a percentage of the vehicle group. Some entries give survivors of the animals treated and no T/C: the source files T/C as zero there, which appears to mark a toxic dose or a test without result, not a measured value. Some survivor counts are full or nearly so, which does not show that the dose was tolerated: the source hardly ever lists a survival T/C far under the control, and the zero likely stands for such cases as well. Counts of survivors are from the toxicity check (mostly the fifth day) where no day follows; animals may have died later. Schedules are NCI's codes, read here as Q, the interval in days (D) or hours (H), X, the number of doses. Some schedule codes hold Z or #, which are not explained here. Some structures stand for samples that the source files as different forms (salt, stereo form or complex); doses refer to the form tested. Signs of the kind (2×) give the number of equal values in this list. Where survival is the endpoint, this PubChem deposit counts one and a half times the control or more as active, and values a quarter to a half above the control carry no call in these data; other NCI protocols may use other cut-offs. Some entries were tested several times; the results are listed from low to high. Some T/C values are followed by the survivors on the day toxicity was checked, most often the fifth; where none is given, no animal had died by that day.

Tested on: BDF1 mice, intracerebral L1210 leukemia, survival T/C
Experiment: NCI In Vivo Anticancer Drug Screen. Data for tumor model L1210 Leukemia (intracerebral) in B6D2F1 (BDF1) mice
Conditions: higher T/C = longer survival
Procedure, shortened: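 Mice carrying transplanted tumour were dosed with compound; survival was recorded and expressed as treated-group value (T) divided by vehicle-control value (C).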

[1] = T/C endpoint: mean survival time, dose: 4.0 mg/kg/injection, schedule: Q01DX009 (ip), vehicle: saline

CN1CCN(CCCN2c3ccccc3Sc3ccc(C(F)(F)F)cc32)CC1
survivor count (T/C endpoint: mean survival time, dose: 66.0 mg/kg/injection, schedule: Q04DX003 (ip), vehicle: water): 5 of 8
survivor count (T/C endpoint: mean survival time, dose: 100.0 mg/kg/injection, schedule: Q04DX003 (ip), vehicle: water): 3 of 8
survivor count (T/C endpoint: mean survival time, dose: 150.0 mg/kg/injection, schedule: Q04DX003 (ip), vehicle: water): 0 of 8

CS(C)=O
T/C (T/C endpoint: median survival time, dose: 1.0 mg/kg/injection, schedule: Q#C X009 (oral), vehicle: water): 128 % of control

O=NN(CCCl)C(=O)NC(Cc1ccccc1)C(=O)O (configuration not stated)
survivor count (T/C endpoint: mean survival time, dose: 168.0 mg/kg/injection, schedule: Q01DX001 (ip), vehicle: gum acacia): 9 of 10

COc1ccc(NC(=O)N(C)N=O)cc1
survivor count (T/C endpoint: mean survival time, dose: 150.0 mg/kg/injection, schedule: Q01DX001 (ip), vehicle: carboxymethylcellulose (CMC)): 10 of 10

CN(N=O)C(N)=O
survivor count (T/C endpoint: mean survival time, dose: 144.0 mg/kg/injection, schedule: Q01DX001 (ip), vehicle: saline): 6 of 10
survivor count (T/C endpoint: mean survival time, dose: 288.0 mg/kg/injection, schedule: Q01DX001 (ip), vehicle: saline): 0 of 10

O=C1C=CN(C2OC(CO)C(O)C2O)C(=O)C1 (configuration not stated)
T/C (T/C endpoint: median survival time, dose: 25.0 mg/kg/injection, schedule: Q01DX009 (ip), vehicle: saline): 133 % of control
T/C (T/C endpoint: median survival time, dose: 50.0 mg/kg/injection, schedule: Q01DX009 (ip), vehicle: saline): 131 % of control [7 of 8 alive]
T/C (T/C endpoint: median survival time, dose: 100.0 mg/kg/injection, schedule: Q01DX009 (ip), vehicle: saline): 143 % of control
T/C (T/C endpoint: median survival time, dose: 400.0 mg/kg/injection, schedule: Q01DX009 (ip), vehicle: saline): 146 % of control

C[C@H](CN1CC(=O)NC(=O)C1)N1CC(=O)NC(=O)C1
T/C (T/C endpoint: median survival time, dose: 32.0 mg/kg/injection, schedule: Q01DX009 (ip), vehicle: water, evaluated on day 30): 131 % of control
T/C (T/C endpoint: median survival time, dose: 32.0 mg/kg/injection, schedule: Q01DX009 (ip), vehicle: water, evaluated on day 31): 130 % of control
T/C (T/C endpoint: median survival time, dose: 64.0 mg/kg/injection, schedule: Q01DX009 (ip), vehicle: water, evaluated on day 30): 149 % of control
T/C (T/C endpoint: median survival time, dose: 64.0 mg/kg/injection, schedule: Q01DX009 (ip), vehicle: water, evaluated on day 31): 137 % of control [8 of 10 alive]
T/C (T/C endpoint: median survival time, dose: 128.0 mg/kg/injection, schedule: Q01DX009 (ip), vehicle: water, evaluated on day 31): 146 % of control
T/C (T/C endpoint: median survival time, dose: 128.0 mg/kg/injection, schedule: Q01DX009 (ip), vehicle: water, evaluated on day 36): 130 % of control [8 of 10 alive]
survivor count (T/C endpoint: median survival time, dose: 512.0 mg/kg/injection, schedule: Q01DX009 (ip), vehicle: water): 9 of 10

COc1cc(NS(C)(=O)=O)ccc1Nc1c2ccccc2nc2ccccc12
survivor count (T/C endpoint: mean survival time, dose: 4.0 mg/kg/injection, schedule: Q01DX009 (ip), vehicle: other): 10 of 10
survivor count (T/C endpoint: mean survival time, dose: 5.0 mg/kg/injection, schedule: Q01DX009 (ip), vehicle: water): 7 of 8 (2×)
survivor count (T/C endpoint: mean survival time, dose: 8.0 mg/kg/injection, schedule: Q01DX009 (ip), vehicle: other): 10 of 10
survivor count (T/C endpoint: mean survival time, dose: 8.4 mg/kg/injection, schedule: Q01DX009 (ip), vehicle: water): 6 of 8 (2×)
survivor count (T/C endpoint: mean survival time, dose: 10.0 mg/kg/injection, schedule: Q01DX009 (ip), vehicle: saline): 10 of 10
survivor count (T/C endpoint: mean survival time, dose: 14.0 mg/kg/injection, schedule: Q01DX009 (ip), vehicle: water): 4 of 8 (2×)
survivor count (T/C endpoint: mean survival time, dose: 20.0 mg/kg/injection, schedule: Q01DX009 (ip), vehicle: saline): 10 of 10
survivor count (T/C endpoint: mean survival time, dose: 23.0 mg/kg/injection, schedule: Q01DX009 (ip), vehicle: water): 1 of 8 (2×)
survivor count (T/C endpoint: mean survival time, dose: 39.0 mg/kg/injection, schedule: Q01DX009 (ip), vehicle: water): 1 of 8 (2×)

NC(Cc1ccc(N(CCCl)CCCl)cc1)C(=O)O (configuration not stated)
T/C (T/C endpoint: mean survival time, dose: 18.0 mg/kg/injection, schedule: Q01DX001 (ip), vehicle: carboxymethylcellulose (CMC)): 125 % of control

O=NN(CCCl)C(=O)NC1CS(=O)(=O)CS(=O)(=O)C1
T/C (T/C endpoint: mean survival time, dose: 25.0 mg/kg/injection, schedule: Q01DX001 (ip), vehicle: other): 125 % of control
T/C (T/C endpoint: mean survival time, dose: 37.0 mg/kg/injection, schedule: Q01DX001 (ip), vehicle: other): 138 % of control

N=[N+]=CC(=O)OCC(N)C(=O)O (configuration not stated)
survivor count (T/C endpoint: mean survival time, dose: 98.0 mg/kg/injection, schedule: Q01DX001 (ip), vehicle: saline): 6 of 10

O=NN(CCCl)C(=O)NC1CCSc2ccccc21 (configuration not stated)
T/C (T/C endpoint: mean survival time, dose: 18.0 mg/kg/injection, schedule: Q01DX001 (ip), vehicle: other): 131 and 147 % of control
survivor count (T/C endpoint: mean survival time, dose: 200.0 mg/kg/injection, schedule: Q01DX001 (ip), vehicle: other): 6 of 10

CC(=O)NC1=C(N2CC2)C(=O)C(NC(C)=O)=C(N2CC2)C1=O
T/C (T/C endpoint: mean survival time, dose: 0.5 mg/kg/injection, schedule: Q01DX009 (ip), vehicle: saline): 129 and 143 % of control
T/C (T/C endpoint: mean survival time, dose: 1.0 mg/kg/injection, schedule: Q01DX009 (ip), vehicle: saline with Tween-80): 127 % of control
T/C (T/C endpoint: mean survival time, dose: 1.0 mg/kg/injection, schedule: Q01DX009 (ip), vehicle: saline): 132 and 146 % of control
T/C (T/C endpoint: mean survival time, dose: 1.0 mg/kg/injection, schedule: Q01DX Z (ip), vehicle: carboxymethylcellulose (CMC)): 132 % of control
T/C (T/C endpoint: mean survival time, dose: 2.0 mg/kg/injection, schedule: Q01DX009 (ip), vehicle: saline with Tween-80): 137 % of control
survivor count (T/C endpoint: mean survival time, dose: 4.0 mg/kg/injection, schedule: Q01DX005 (ip), vehicle: saline with Tween-80): 10 of 10
survivor count [1]: 5 of 6
survivor count (T/C endpoint: mean survival time, dose: 4.0 mg/kg/injection, schedule: Q01DX Z (ip), vehicle: carboxymethylcellulose (CMC)): 10 of 10

S=c1nc[nH]c2nc[nH]c12
T/C (T/C endpoint: mean survival time, dose: 10.0 mg/kg/injection, schedule: Q01DX009 (ip), vehicle: alkali diluted with saline): 126 % of control
T/C (T/C endpoint: mean survival time, dose: 20.0 mg/kg/injection, schedule: Q01DX009 (ip), vehicle: alkali diluted with saline): 136 % of control
T/C (T/C endpoint: mean survival time, dose: 40.0 mg/kg/injection, schedule: Q01DX009 (ip), vehicle: alkali diluted with saline): 141 % of control
T/C (T/C endpoint: median survival time, dose: 800.0 mg/kg/injection, schedule: Q01DX001 (oral), vehicle: saline with Tween-80): 125 % of control
T/C (T/C endpoint: median survival time, dose: 1600.0 mg/kg/injection, schedule: Q01DX001 (oral), vehicle: saline with Tween-80): 129 % of control

O=NN(CCCl)C(=O)NC1CSCSC1
T/C (T/C endpoint: mean survival time, dose: 6.7 mg/kg/injection, schedule: Q01DX001 (ip), vehicle: other): 132 % of control
T/C (T/C endpoint: mean survival time, dose: 10.0 mg/kg/injection, schedule: Q01DX001 (ip), vehicle: other): 138 and 142 % of control
T/C (T/C endpoint: mean survival time, dose: 16.5 mg/kg/injection, schedule: Q01DX001 (ip), vehicle: other): 135 and 148 % of control
T/C (T/C endpoint: mean survival time, dose: 33.0 mg/kg/injection, schedule: Q01DX001 (ip), vehicle: other): 222 [8 of 10 alive], 286, 290, 324 % of control

CC(C)(C)C1CCCC(NC(=O)N(CCCl)N=O)C1 (configuration not stated)
T/C (T/C endpoint: mean survival time, dose: 82.0 mg/kg/injection, schedule: Q01DX001 (ip), vehicle: saline with Tween-80): 148 % of control
T/C (T/C endpoint: mean survival time, dose: 125.0 mg/kg/injection, schedule: Q01DX001 (ip), vehicle: saline with Tween-80): 144 % of control
T/C (T/C endpoint: mean survival time, dose: 280.0 mg/kg/injection, schedule: Q01DX001 (ip), vehicle: saline with Tween-80): 132 % of control

N[C@H](C(=O)O)[C@@H]1CC(Cl)=NO1
T/C [1]: 126 % of control
T/C (T/C endpoint: mean survival time, dose: 8.0 mg/kg/injection, schedule: Q01DX009 (ip), vehicle: saline): 129 % of control [7 of 8 alive]
T/C (T/C endpoint: median survival time, dose: 2.0 mg/kg/injection, schedule: Q01DX009 (ip), vehicle: saline): 135 % of control [7 of 8 alive]
T/C (T/C endpoint: median survival time, dose: 16.0 mg/kg/injection, schedule: Q01DX009 (ip), vehicle: saline): 127 % of control

O=NN(CCF)C(=O)NC12CC3CC(CC(C3)C1)C2
T/C (T/C endpoint: mean survival time, dose: 80.0 mg/kg/injection, schedule: Q01DX001 (ip), vehicle: other): 134 % of control
T/C (T/C endpoint: mean survival time, dose: 125.0 mg/kg/injection, schedule: Q01DX001 (ip), vehicle: other): 136 % of control
survivor count (T/C endpoint: mean survival time, dose: 187.0 mg/kg/injection, schedule: Q01DX001 (ip), vehicle: other): 10 of 10
survivor count (T/C endpoint: mean survival time, dose: 280.0 mg/kg/injection, schedule: Q01DX001 (ip), vehicle: other): 10 of 10
